Laboratory results reported in patent US20230190869A1, “PEPTIDE INHIBITORS OF GUANINE NUCLEOTIDE EXCHANGE FACTOR H-1” (UCL Business Ltd, priority 2020, published 2023).
At least one peptide structure holds a part that was inferred or is arguable (an end, a ring closure or a residue). Numbered stars: 1 amine (or outer) side, 2 acyl side, 3 side chain; on linkers, the order of the positions; unused ones are H or OH. Bridge positions count the residues as written; N and C are the ends. Square brackets hold non-standard residues; d marks the D form. Ends that are not written are not given here. Peptide text beside a SMILES is read from it. ξ: configuration not given here. ξαMeNle(6-ylidene) = CC(CCCC=[*:3])(N[*:1])C(=O)[*:2]

Tests used:
p114RhoGEF = target: T1, p114RhoGEF (Homo sapiens, UniProt Q6ZSZ5); assay: p114RhoGEF-induced cell rounding in MDCK cells (specificity); type: cell-based
T1 sequence (Q6ZSZ5 1-1015 isoform Q6ZSZ5-2): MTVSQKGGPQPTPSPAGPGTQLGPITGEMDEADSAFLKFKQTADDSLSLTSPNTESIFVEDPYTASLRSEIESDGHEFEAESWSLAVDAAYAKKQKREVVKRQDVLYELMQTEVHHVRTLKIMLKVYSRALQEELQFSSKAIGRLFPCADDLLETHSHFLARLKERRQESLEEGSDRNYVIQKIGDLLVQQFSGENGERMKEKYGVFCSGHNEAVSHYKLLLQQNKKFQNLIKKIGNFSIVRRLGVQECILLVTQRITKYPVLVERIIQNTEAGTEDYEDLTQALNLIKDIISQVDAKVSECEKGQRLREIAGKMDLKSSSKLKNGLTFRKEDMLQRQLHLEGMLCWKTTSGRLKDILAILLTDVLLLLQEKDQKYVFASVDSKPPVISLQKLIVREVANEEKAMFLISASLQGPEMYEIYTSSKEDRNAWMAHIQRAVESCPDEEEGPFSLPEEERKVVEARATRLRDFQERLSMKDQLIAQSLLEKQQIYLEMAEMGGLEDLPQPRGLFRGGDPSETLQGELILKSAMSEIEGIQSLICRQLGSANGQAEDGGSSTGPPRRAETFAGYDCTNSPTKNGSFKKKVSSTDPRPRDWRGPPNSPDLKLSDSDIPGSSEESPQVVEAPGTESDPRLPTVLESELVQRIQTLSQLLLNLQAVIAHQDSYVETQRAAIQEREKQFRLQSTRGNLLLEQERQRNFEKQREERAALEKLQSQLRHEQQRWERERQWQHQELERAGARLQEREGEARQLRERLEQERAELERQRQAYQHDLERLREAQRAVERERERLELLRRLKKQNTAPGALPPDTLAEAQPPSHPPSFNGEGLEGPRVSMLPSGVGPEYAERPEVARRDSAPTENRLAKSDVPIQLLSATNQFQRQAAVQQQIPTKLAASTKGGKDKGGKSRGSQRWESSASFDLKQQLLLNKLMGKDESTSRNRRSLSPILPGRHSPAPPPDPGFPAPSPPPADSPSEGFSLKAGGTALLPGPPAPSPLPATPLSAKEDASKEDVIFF

RPE cells = assay: Scratch wound migration assay of RPE cells with TGF-β; type: cell-based
[1] = system: Human RPE cells generated from embryonic stem cells; assay: TGF-β-induced degeneration of human RPE cells generated from embryonic stem cells; type: cell-based
[2] = system: Human primary endothelial cells; assay: LPS-induced endothelial activation; type: cell-based
From the text: GEF-H1 inhibitors prevent endothelial inflammatory responses induced by LPS. Human primary endothelial cells were stimulated with LPS in the presence or absence of the indicated GEF-H1 inhibitors. […] TAT-P5 and TAT-F1 attenuate cytoskeletal remodelling, ICAM1 induction, and attenuate loss of barrier function.
8) GEF-H1 regulates inflammatory responses in various cell types. […] Similarly, cytoskeletal remodeling and cell junction disruption was also attenuated in TNFα and Thrombin-stimulated endothelial cells.

NF-κB activity = assay: NF-κB luciferase reporter assay in human corneal epithelial cells; type: cell-based; conditions: FIG. 14
[3] = system: experimental autoimmune-induced uveoretinitis (EAU); assay: Experimental autoimmune-induced uveoretinitis (EAU) in mice; type: in vivo
allergic conjunctivitis = assay: OVA-induced allergic conjunctivitis mouse model; type: in vivo; conditions: eye drops, OVA challenge

Compound: GRKKRRQRRRPWQGQEDYDRLRPASYPDTDVI [TAT-P5]
- inhibition of p114RhoGEF overexpression-induced cell rounding (p114RhoGEF; TAT-P5 20 μM, MDCK cells): not inhibited
- migration of TGF-β-treated RPE cells (RPE cells): effectively inhibited
- TGF-β-induced αSMA induction ([1]; immunofluorescence): prevents
- TGF-β-induced junctional disruption ([1]; immunofluorescence (ZO-1, cingulin)): prevents
- LPS-induced ICAM1 induction ([2]; immunoblotting): attenuate
- LPS-induced cytoskeletal remodelling ([2]; immunofluorescence): attenuate
- LPS-induced loss of barrier function ([2]; paracellular permeability): attenuate
- NF-κB-mediated transcription stimulated by constitutively active GEF-H1 (NF-κB activity): inhibited
- retinal structure as assessed by histology at the end of the treatment [3]: improved outcome
- inflammatory cell accumulation (Periodic Acid-Schiff staining) (allergic conjunctivitis): strong reduction
- pathological response of inhibitor treated eye (clinical) (allergic conjunctivitis; four mice, all animals): strong attenuation

Compound: CC(C)C[C@H](NC(=O)[C@@H](N)CCCNC(=N)N)C(=O)NC1(C)CCCC=CCCCC(C)(C(=O)N2CCC[C@H]2C(=O)N[C@@H](CC(=O)O)C(=O)N[C@H](C(=O)O)[C@@H](C)O)NC(=O)[C@H](CO)NC(=O)[C@H](C)NC(=O)[C@@H]2CCCN2C1=O (stereo partly shown) [stapled-P5, RL(X)PAS(X)PDT; X = 2,(4, pentenyl)alanine] (H-RL[ξαMeNle(6-ylidene)]PAS[ξαMeNle(6-ylidene)]PDT-OH; staple 3-7)
- inhibition of cell shape changes induced by p114RhoGEF (p114RhoGEF; stapled-P5, MDCK cells): did not inhibit
- LPS-induced response in endothelia ([2]; not shown): inhibited
